# Laboratory results taken from US20150331992A1, “CANCER PROGNOSIS AND THERAPY BASED ON SYNTHEIC LETHALITY” (Ramot at Tel-Aviv University Ltd., priority 2014, published 2015).
# Tested on: VHL-deficient and VHL-restored renal carcinoma cells (RCC4)
# Assay: Growth inhibition of VHL-deficient vs VHL-restored renal cells by drugs at mid-effective concentration
# Type: cell-based
# Settings: mid-effective concentration of each drug; both cell lines in triplicates; FIG. 5
# Experimental: A range of concentrations for each drug were tested to identify a suitable working concentration in which there was an effect on cells growth, but not complete death (which is more likely to be due to non-specific toxicity).
structure (smiles),measurement,value
CN[C@@H]1C[C@H]2O[C@@](C)([C@@H]1OC)n1c3ccccc3c3c4c(c5c6ccccc6n2c5c31)C(=O)NC4 [Staurosporine],Sensitivity (percentage of growth inhibition) of VHL-deficient cells compared to isogenic cells in which pVHL was restored,specificity was however not observed
